Measured values: patent publication US20160017053A1 (IMMUNOGEN, published 2016)

Legend:
[1] = target: monkey EGFR on Vero cells (African green monkey kidney cell line) (African green monkey); assay: flow cytometry of hybridoma supernatant on Vero cells
[2] = target: monkey EGFR on Vero cells (African green monkey kidney cell line) (African green monkey); assay: flow cytometry on Vero cells

| Binder | binding [1] | binding [2] |
| --- | --- | --- |
| murine EGFR-8 antibody (antibody, V domains shown, Mouse monoclonal antibody purified from hybridoma; also called muEGFR-8) VH: EVQLQQSGAELVKPGASVKLSCTTSGFNIKDTYIHWVKKRPEQGLEWIGRIDPTNGNNKYDPKFQGKATITADTSSNTAYLQLSSLTSEDTAVYYCTREDGYRYDDWYFDVWGAGTTVTVSS VL: QIVLTQSPASMSASPGEKVTMTCSASSSVSYMHWYQQKSGTSPKRWIYATSKLASGVPARFSGSGSGTSYSLTISSMEAEDAATYYCQQWSSNPLTFGAGTKLELKR | binds | binds |
| rat ML66 antibody (antibody, V domains shown, Rat monoclonal antibody purified from hybridoma) VH: QVQLKESGPGLVQPSQTLSLTCTVSGLSLASNSVSWIRQPPGKGLEWMGVIWNHGGTDYNSVIKSRLSISRDTSKSQVFLKMNSLQTEDTAMYFCVRKGGIYFDYWGQGVMVTVSS VL: DTVLTQSPALAVSPGERVTISCRASESVSTLMHWYQQKSGQQPKLLIYLASHRESGVPARFSGSGSGTDFTLTIDPMEADDTATYYCQQSRNDPWTFGGGTNLELKR |  | binds |

Results are given in words; binding and its absence hold for the method and conditions named. A result given as binding can be weak or reduced; the word gives no strength.
